# According to PubChem BioAssay AID256 (DTP/NCI, 2004):
# The list does not hold the whole screen: it gathers tests that were run many times, whatever their T/C, doses with no T/C, and many T/C values between a quarter and a half above the control. Further doses and runs are listed elsewhere. T/C gives the treated animals as a percentage of the vehicle group. Some doses have a count of surviving animals in place of a T/C: the source holds a T/C of zero for them, seemingly a mark for toxic or unscored doses. Some survivor counts are full or nearly so, which does not show that the dose was tolerated: survival well below the control is almost never listed, so the zero probably covers shortened survival too. Counts of survivors are from the toxicity check (mostly the fifth day) where no day follows; animals may have died later. Schedules are NCI's codes, taken here to give the interval after Q, in days (D) or hours (H), and the number of doses after X. Some schedule codes hold Z or #, which are not explained here. Some entries were tested several times; the values are given in rising order. Where survival is the endpoint, this PubChem deposit counts one and a half times the control or more as active, and values a quarter to a half above the control carry no call in these data; other NCI protocols may use other cut-offs. Brackets with × stand for listed records that agree. Some T/C values are followed by the survivors on the day toxicity was checked, most often the fifth; without a count, all were alive then.
# Test system: CD2F1 mice, L1210 leukemia ip, survival T/C
# Test: NCI In Vivo Anticancer Drug Screen. Data for tumor model L1210 Leukemia (intraperitoneal) in CD2F1 (CDF1) mice
# Conditions: higher T/C = longer survival
# In short: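 Ratio T/C, where T is the treated-group value and C the vehicle-dosed control value, from mice implanted with a transplantable tumor.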
# [1] = T/C endpoint: mean survival time, dose: 100.0 mg/kg/injection, schedule: Q01DX009 (ip), vehicle: Klucel (hydroxypropylcellulose) (HPC)
# [2] = T/C endpoint: mean survival time, dose: 200.0 mg/kg/injection, schedule: Q01DX009 (ip), vehicle: Klucel (hydroxypropylcellulose) (HPC)
# [3] = T/C endpoint: mean survival time, dose: 400.0 mg/kg/injection, schedule: Q01DX009 (ip), vehicle: Klucel (hydroxypropylcellulose) (HPC)
# [4] = T/C endpoint: mean survival time, dose: 300.0 mg/kg/injection, schedule: Q01DX001 (ip), vehicle: saline
# [5] = T/C endpoint: mean survival time, dose: 400.0 mg/kg/injection, schedule: Q01DX009 (ip), vehicle: saline with Tween-80
# [6] = T/C endpoint: mean survival time, dose: 50.0 mg/kg/injection, schedule: Q01DX009 (ip), vehicle: saline with Tween-80
# [7] = T/C endpoint: mean survival time, dose: 100.0 mg/kg/injection, schedule: Q01DX009 (ip), vehicle: saline with Tween-80
# [8] = T/C endpoint: mean survival time, dose: 100.0 mg/kg/injection, schedule: Q04DX003 (ip), vehicle: saline with Tween-80
# [9] = T/C endpoint: mean survival time, dose: 200.0 mg/kg/injection, schedule: Q04DX003 (ip), vehicle: saline with Tween-80
# [10] = T/C endpoint: mean survival time, dose: 400.0 mg/kg/injection, schedule: Q01DX001 (ip), vehicle: saline with Tween-80
# [11] = T/C endpoint: mean survival time, dose: 400.0 mg/kg/injection, schedule: Q04DX003 (ip), vehicle: saline with Tween-80
smiles,measurement,setting,value
COc1cccnc1/C=N/NC(N)=S,T/C,"T/C endpoint: mean survival time, dose: 5.54 mg/kg/injection, schedule: Q01DX009 (ip), vehicle: saline with Tween-80",136 % of control
same,T/C,"T/C endpoint: mean survival time, dose: 6.25 mg/kg/injection, schedule: Q01DX009 (ip), vehicle: saline with Tween-80",134 % of control
same,T/C,"T/C endpoint: mean survival time, dose: 8.32 mg/kg/injection, schedule: Q01DX009 (ip), vehicle: saline with Tween-80",130 % of control
same,T/C,"T/C endpoint: mean survival time, dose: 12.5 mg/kg/injection, schedule: Q01DX009 (ip), vehicle: saline with Tween-80",140 % of control [5 of 6 alive]
same,T/C,"T/C endpoint: mean survival time, dose: 18.8 mg/kg/injection, schedule: Q01DX009 (ip), vehicle: saline with Tween-80",126 [7 of 10 alive] and 129 % of control [9 of 10 alive]
same,survivor count,"T/C endpoint: mean survival time, dose: 25.0 mg/kg/injection, schedule: Q01DX009 (ip), vehicle: saline with Tween-80",6 of 6
same,survivor count,"T/C endpoint: mean survival time, dose: 25.0 mg/kg/injection, schedule: Q04DX002 (ip), vehicle: saline with Tween-80",0 of 3
same,survivor count,"T/C endpoint: mean survival time, dose: 28.1 mg/kg/injection, schedule: Q01DX001 (ip), vehicle: saline with Tween-80",4 of 10
same,survivor count,"T/C endpoint: mean survival time, dose: 28.1 mg/kg/injection, schedule: Q01DX009 (ip), vehicle: saline with Tween-80",0 of 10
same,survivor count,"T/C endpoint: mean survival time, dose: 28.1 mg/kg/injection, schedule: Q04DX001 (ip), vehicle: saline with Tween-80",9 of 10
O=C(NNc1ccccc1)c1ccccc1,survivor count,[1],1 of 6
same,survivor count,[2],0 of 6
same,survivor count,[3],0 of 6
C#CC[N+](C)(C)CCNC(=O)CCCCCCCCCCCCCCC,survivor count,"T/C endpoint: mean survival time, dose: 150.0 mg/kg/injection, schedule: Q01DX001 (ip), vehicle: saline",0 of 6
same,survivor count,[4],0 of 6
CSC(=S)N(C)/N=C/c1ccccn1,survivor count,[5],3 of 6
NC(=S)N/N=C/c1ccc(OC(=O)COc2ccccc2Cl)cn1,T/C,[6],132 and 135 % of control
same,T/C,[7],144 % of control
same,T/C,[8],125 % of control
same,T/C,[9],136 and 145 % of control
same,T/C,[10],129 % of control [9 of 10 alive]
same,survivor count,[5],10 of 10
same,T/C,"T/C endpoint: mean survival time, dose: 400.0 mg/kg/injection, schedule: Q04DX002 (ip), vehicle: saline with Tween-80",130 and 137 % of control
same,T/C,"T/C endpoint: mean survival time, dose: 800.0 mg/kg/injection, schedule: Q04DX002 (ip), vehicle: saline with Tween-80",141 % of control
Nc1ncnc2c1ncn2C1OC(COCc2ccccc2)C(OCc2ccccc2)C1OCc1ccccc1 (stereo not given),survivor count,"T/C endpoint: mean survival time, dose: 40.0 mg/kg/injection, schedule: Q01DX Z (ip), vehicle: saline",6 of 6
Nc1ccn(C2OC(COC(=O)C34CC5CC(CC(C5)C3)C4)C(O)C2O)c(=O)n1 (stereo not given),T/C,"T/C endpoint: mean survival time, dose: 200.0 mg/kg/injection, schedule: Q01DX009 (ip), vehicle: other",128 % of control
CC1([N+](=O)[O-])COC(c2ccc(Cl)cc2)OC1 (stereo not given),survivor count,"T/C endpoint: mean survival time, dose: 400.0 mg/kg/injection, schedule: Q04DX003 (ip), vehicle: Klucel (hydroxypropylcellulose) (HPC)",1 of 3
CC1=CC(=Nc2ccc(N(CCCl)CCCl)cc2)C=C(C)C1=O,T/C,"T/C endpoint: mean survival time, dose: 6.25 mg/kg/injection, schedule: Q01DX009 (ip), vehicle: Klucel (hydroxypropylcellulose) (HPC)",128 % of control
same,T/C,"T/C endpoint: mean survival time, dose: 12.5 mg/kg/injection, schedule: Q01DX009 (ip), vehicle: Klucel (hydroxypropylcellulose) (HPC)","110, 114, 120, 127 % of control"
same,T/C,"T/C endpoint: mean survival time, dose: 25.0 mg/kg/injection, schedule: Q01DX009 (ip), vehicle: Klucel (hydroxypropylcellulose) (HPC)","127, 132 (2×), 134 % of control"
same,T/C,"T/C endpoint: mean survival time, dose: 50.0 mg/kg/injection, schedule: Q01DX009 (ip), vehicle: Klucel (hydroxypropylcellulose) (HPC)","97, 110 (2×), 125, 137 % of control"
same,survivor count,[1],3 of 3
same,survivor count,[2],3 of 3
NNc1n[nH]c(=S)n1N,survivor count,[6],2 of 6
same,survivor count,[7],1 of 6
COc1cc(C2CNCc3cc(O)c(OC)cc32)ccc1O (stereo not given),survivor count,[4],0 of 6
O=C(Cn1cc[n+](CC(=O)c2ccccc2)c1)c1ccccc1,survivor count,[9],3 of 6
same,survivor count,[11],1 of 6
CN(C)CC(N)C(=O)O (stereo not given),survivor count,"T/C endpoint: mean survival time, dose: 25.0 mg/kg/injection, schedule: Q04DX002 (ip), vehicle: saline",3 of 3
COc1cccc(N2CCN(CC(O)COc3ccc(N)cc3)CC2)c1 (stereo not given),survivor count,"T/C endpoint: mean survival time, dose: 100.0 mg/kg/injection, schedule: Q04DX002 (ip), vehicle: other",0 of 3
same,survivor count,"T/C endpoint: mean survival time, dose: 200.0 mg/kg/injection, schedule: Q04DX002 (ip), vehicle: other",0 of 3
same,survivor count,"T/C endpoint: mean survival time, dose: 400.0 mg/kg/injection, schedule: Q04DX002 (ip), vehicle: other",0 of 3
Cc1cc2nc3ccc(=[N+](C)C)cc-3sc2cc1N,survivor count,"T/C endpoint: mean survival time, dose: 100.0 mg/kg/injection, schedule: Q04DX003 (ip), vehicle: saline",1 of 6
CN1CCOc2ccccc2OCCOCCOc2ccccc2OCC1,survivor count,[3],0 of 6
CC(=O)CC(C)=O.CC(=O)CC(C)=O.O=N[O-].O=N[O-].[Co],T/C,"T/C endpoint: median survival time, dose: 50.0 mg/kg/injection, schedule: Q01DX009 (ip), vehicle: saline with Tween-80",127 % of control
same,survivor count,"T/C endpoint: median survival time, dose: 100.0 mg/kg/injection, schedule: Q01DX009 (ip), vehicle: saline with Tween-80",1 of 6 and 3 of 6
same,survivor count,"T/C endpoint: median survival time, dose: 200.0 mg/kg/injection, schedule: Q01DX009 (ip), vehicle: saline with Tween-80",0 of 6
CCCCCCCCCCCCOC(=O)C[n+]1cccc(C(=O)Nc2ccc(Cl)cc2)c1,survivor count,[7],3 of 6
same,survivor count,[9],1 of 6
same,survivor count,[11],0 of 6
CCC(C)Nc1ccc(N)cc1 (stereo not given),survivor count,"T/C endpoint: mean survival time, dose: 12.5 mg/kg/injection, schedule: Q01DX009 (ip), vehicle: carboxymethylcellulose (CMC)",0 of 6
same,survivor count,"T/C endpoint: mean survival time, dose: 25.0 mg/kg/injection, schedule: Q01DX009 (ip), vehicle: carboxymethylcellulose (CMC)",0 of 6
same,survivor count,"T/C endpoint: mean survival time, dose: 50.0 mg/kg/injection, schedule: Q01DX009 (ip), vehicle: carboxymethylcellulose (CMC)",0 of 6
O=C1C(Cl)=C(SCc2ccccc2)C(=O)c2ccccc21,survivor count,[8],2 of 6
COc1ccc(-c2c(C(=O)NCCc3ccccc3)[nH]c(-c3ccccc3)c2-c2ccccc2)cc1,survivor count,[4],3 of 6
O=C(Nc1c[nH]c(=O)[nH]c1=O)C(Cl)Cl,survivor count,"T/C endpoint: mean survival time, dose: 400.0 mg/kg/injection, schedule: Q04DX003 (ip), vehicle: other",2 of 6
Nc1nc(-c2cccc([N+](=O)[O-])c2)c(N=Nc2ccc([N+](=O)[O-])cc2)s1,survivor count,[10],6 of 6
CCOc1ccnc(OCC)n1,survivor count,[11],1 of 6
C=C1C(O)C2(O)OCC34C(CC5C(C)=CC(=O)C(O)C5(C)C23)OC(=O)C(OC(=O)C/C=C(\C)CCCCC)C14 (stereo not given),T/C,"T/C endpoint: median survival time, dose: 4.0 mg/kg/injection, schedule: Q01DX005 (ip), vehicle: saline + alcohol",125 and 132 % of control
same,T/C,"T/C endpoint: median survival time, dose: 8.0 mg/kg/injection, schedule: Q01DX005 (ip), vehicle: saline + alcohol",125 % of control
same,survivor count,"T/C endpoint: median survival time, dose: 16.0 mg/kg/injection, schedule: Q01DX005 (ip), vehicle: saline + alcohol",0 of 6 and 5 of 6
same,survivor count,"T/C endpoint: median survival time, dose: 32.0 mg/kg/injection, schedule: Q01DX005 (ip), vehicle: saline + alcohol",0 of 6
same,survivor count,"T/C endpoint: median survival time, dose: 64.0 mg/kg/injection, schedule: Q01DX005 (ip), vehicle: saline + alcohol",0 of 6
O=S(=O)(C1CCCCC1)N1N=NC2CCCCC21 (stereo not given),survivor count,[11],2 of 6
O=C(CBr)C(=O)CBr,survivor count,"T/C endpoint: mean survival time, dose: 2.5 mg/kg/injection, schedule: Q04DX003 (ip), vehicle: saline with Tween-80",0 of 6
same,survivor count,"T/C endpoint: mean survival time, dose: 5.0 mg/kg/injection, schedule: Q04DX003 (ip), vehicle: saline with Tween-80",0 of 6
same,survivor count,"T/C endpoint: mean survival time, dose: 10.0 mg/kg/injection, schedule: Q04DX003 (ip), vehicle: saline with Tween-80",0 of 6
O=C1CCCN1.O=C1CCCN1.[Br][Co][Br],T/C,"T/C endpoint: mean survival time, dose: 150.0 mg/kg/injection, schedule: Q01DX009 (ip), vehicle: saline",128 % of control
same,survivor count,"T/C endpoint: mean survival time, dose: 300.0 mg/kg/injection, schedule: Q01DX009 (ip), vehicle: saline",0 of 6
O=C1C2=Cc3ccccc3CN2Cc2ccccc21,survivor count,"T/C endpoint: mean survival time, dose: 300.0 mg/kg/injection, schedule: Q01DX001 (ip), vehicle: other",4 of 6
